Source: article PMC4466140, “Evolution of the SH3 Domain Specificity Landscape in Yeasts” (PLoS ONE, 2015)

Assays:
[1] = molecular target: T1, Type II peptide #66 (yeast two-hybrid bait) (S. cerevisiae); assay: two-hybrid; peptides as bait in pGBKT7, SH3 domains as prey in pYR035 (modified pGADT7); S. cerevisiae Gold strain; ~10^4 cells spotted on His-, His- with 2.5, 5 or 10 mM 3AT, or Ade- plates; three days at 28°C
T1 sequence (peptide): SSSSTPPTLPPRRIE

[2] = molecular target: T2, non-canonical Type I peptide #268 (yeast two-hybrid bait) (S. cerevisiae); assay: as above
T2 sequence (peptide): ITHRLRISIPGITGR

[3] = molecular target: T3, Type II peptide #66 (SPOT membrane) (S. cerevisiae); assay: peptide or protein array; SPOT: 15-mer peptides on cellulose (CAPE) membrane; GST-SH3 domains at 10 μg/ml overnight at 4°C in blocking buffer (TBS, 50 mM Tris/HCl pH 7.6, 150 mM NaCl, Blocking Buffer, 0.15 M sucrose); detected with anti-GST antibody and HRP conjugate; both purified
T3 sequence (peptide): SSSSTPPTLPPRRIE

[4] = molecular target: T4, non-canonical Type I peptide #268 (SPOT membrane) (S. cerevisiae); assay: as above
T4 sequence (peptide): ITHRLRISIPGITGR

| Substance | binding [1] | binding [2] | binding [3] | binding [4] |
| --- | --- | --- | --- | --- |
| A. gossypii Rvs167 SH3 domain (yeast two-hybrid prey) (domain or fragment) | binds |  |  |  |
| C. albicans Rvs167-2 SH3 domain (yeast two-hybrid prey) (domain or fragment) | no binding | no binding |  |  |
| C. albicans Rvs167-3 SH3 domain (yeast two-hybrid prey) (domain or fragment) | no binding | binds |  |  |
| GST-tagged A. gossypii Rvs167 SH3 domain (domain or fragment) |  |  | binds |  |
| GST-tagged C. albicans Rvs167-3 SH3 domain (domain or fragment) |  |  |  | binds |

Results are given in words; binding and its absence hold for the method and conditions named. Binding calls can cover weak binding; strength is not graded here.
